# Measured data: PubChem BioAssay AID504786 (Drosophila RNAi Screening Center, 2011)
# Screen: 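Knock-downs reducing HIF reporter induction by the iron chelator DFO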 (primary screen)
# System: Drosophila S2 cells with a stable HIF luciferase reporter
# Reagents: long dsRNA against Drosophila genes, about 0.2 µg dsRNA per well of a 384-well plate
# Duration: three days of knock-down, then 20 h of DFO before reading
# Conditions: desferrioxamine (DFO) at 100 µM, an iron chelator that mimics hypoxia, for 20 h
# Measured: 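Firefly luciferase driven by the mouse ldh-a hypoxia-response element, measured after 20 h of 100 µM DFO; z-scores per plate, higher means more signal lost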
# Direction: z-score: higher = stronger loss of HIF reporter signal
# The screen tested about 21,000 reagents; below is a random part of those that have a named target and a result. 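Primary screen; positive scores mean lost reporter signal, so the sign may be inverted from the usual convention.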 A plus sign joins genes that one reagent is predicted to hit. Further read-outs or replicates are left out here. Reagent sequences are not shown.
Target gene,amplicon,"z-score, replicate 1","z-score, replicate 2"
Doc1,DRSC11146,-0.3,-0.4
Tango8,DRSC06474,0.8,0.7
CG34286,DRSC13372,-0.6,-0.1
glo,DRSC16145,0,0.2
Ice2,DRSC14268,-0.2,0.2
CG3097,DRSC18275,-0.2,-0.4
CG8353,DRSC03084,-0.2,-0.1
CG8093,DRSC07078,-0.3,-0.2
fau,DRSC12816,-0.3,-0.3
fau,DRSC12817,-0.2,0.1
fau,DRSC16943,-0.2,-0.5
fau,DRSC16944,-0.2,-0.4
fau,DRSC16945,-0.4,-1
jp,DRSC02213,-0.3,-0.6
jp,DRSC02744,-0.3,-0.5
CG42686 (retired record),DRSC15247,3.9,0.1
CG42686 (retired record),DRSC15248,-0.1,-0.3
ATP8A,DRSC05421,-0.2,-0.2
ATP8A,DRSC06643,0.2,0.3
ATP8A,DRSC06644,-0.2,-0.6
gb,DRSC15961,-0.2,0
Ublcp1,DRSC14149,-0.1,-0.8
in,DRSC11888,-0.2,-0.1
CG10804,DRSC17764,-0.2,-0.1
ps,DRSC15149,0,-0.3
ps,DRSC15151,1.5,1.5
ps,DRSC15152,0.8,-0.3
ps,DRSC16388,2.6,0.1
mRpS18B,DRSC02107,0.3,0.6
CG31624,DRSC02617,0.1,-0.3
Teh4,DRSC08457,-0.3,0.3
Ube4A,DRSC02004,-0.1,0.1
ND-B17.2,DRSC00577,-0.1,-0.2
CG34284,DRSC14773,-0.8,0.3
CG11134,DRSC19384,-0.8,-0.4
CG15019,DRSC08473,-0.1,-0.4
fd59A,DRSC04685,-0.3,-0.7
CG4287,DRSC15559,0,-0.2
CG2202,DRSC19841,-0.2,-0.1
Ugt37E1,DRSC02248,-0.2,-0.4
mGluR,DRSC17215,-0.3,-0.5

Next part; the last 15 above are carried over.
Target gene,amplicon,"z-score, replicate 1","z-score, replicate 2"
ps,DRSC15152,0.8,-0.3
ps,DRSC16388,2.6,0.1
mRpS18B,DRSC02107,0.3,0.6
CG31624,DRSC02617,0.1,-0.3
Teh4,DRSC08457,-0.3,0.3
Ube4A,DRSC02004,-0.1,0.1
ND-B17.2,DRSC00577,-0.1,-0.2
CG34284,DRSC14773,-0.8,0.3
CG11134,DRSC19384,-0.8,-0.4
CG15019,DRSC08473,-0.1,-0.4
fd59A,DRSC04685,-0.3,-0.7
CG4287,DRSC15559,0,-0.2
CG2202,DRSC19841,-0.2,-0.1
Ugt37E1,DRSC02248,-0.2,-0.4
mGluR,DRSC17215,-0.3,-0.5
CG32733 (retired record) + CG32797,DRSC17705,1.1,0.9
CG15740,DRSC19706,2,2.8
ATPCL,DRSC05913,-0.4,-0.5
lobo,DRSC14662,0.1,0.1
lobo,DRSC14663,-0.6,-0.3
CG6357,DRSC06979,-0.2,-0.9
CG42671,DRSC09093,1.1,0.6
CG42671,DRSC10321,-0.3,-0.3
GatB,DRSC15807,0.3,0.1
PIG-Wa,DRSC00728,-0.3,-0.4
Mrp4,DRSC14931,-0.2,0.3
beat-IIIa,DRSC01575,-0.2,-0.6
beat-IIIa,DRSC01577,0,-0.4
beat-IIIa,DRSC02178,-0.3,-0.5
Cpr47Ed,DRSC07331,-0.4,0.1
Kcmf1,DRSC14459,-0.1,0.1
CG8141,DRSC16387,0,-0.3
CG10222,DRSC09714,-0.1,-0.2
Ir52a,DRSC06262,-0.3,-0.1
pcm,DRSC20361,0,-0.1
Rsph4a,DRSC04338,0,-0.3
CG14232,DRSC19588,-0.3,0.1
CG16922 (retired record),DRSC19758,1.5,0.1
CG14647,DRSC12233,-0.3,-0.6
GstS1,DRSC07436,-0.2,-0.2
CG4271,DRSC00649,-0.2,-0.6
CG4161,DRSC01930,-0.2,-0.3
CG4887,DRSC00670,-0.2,-0.4
CG8607,DRSC11012,-0.3,0.1
CG13716,DRSC08325,-0.4,-1
CG31176,DRSC15038,0,-0.2
CG31176,DRSC16021,0.3,0.2
dpr11,DRSC12561,-0.2,0.3
dpr11,DRSC12562,-0.5,-0.4
dpr11,DRSC12563,-0.4,-0.3
CG12716,DRSC19493,0,0.3
amd,DRSC02608,-0.3,-0.6
amd,DRSC03483,-0.2,-0.6
CG11771,DRSC14379,-0.2,-0.2
CG33251 (retired record) + CG9915,DRSC20217,0.6,1
CG33095,DRSC14441,-0.1,-0.6
CG9427,DRSC16490,-0.4,-0.5
Ntf-2r,DRSC02019,-0.1,-0.3
cic,DRSC14276,0.3,-0.6
cic,DRSC15708,1,-1
cic,DRSC16918,0.7,1.2
cic,DRSC21243,-0.3,-0.3
Dus3,DRSC02059,-0.2,-0.3
ms(2)34Fe,DRSC01905,0.2,-0.1
MBD-R2,DRSC14180,2.4,3.1
CG42342,DRSC13165,-0.5,-0.2
CG42342,DRSC14378,4.2,5.2
CG42342,DRSC15010,-0.2,-0.4
CG42342,DRSC15011,0,0
CG42342,DRSC15012,0.1,-0.2
lolal,DRSC06948,-0.2,-0.1
CG30060,DRSC05419,-0.2,-0.3
ATPsyngamma,DRSC14094,1.8,1
Moca-cyp,DRSC15364,-0.4,-0.3
Bug22,DRSC02842,0.5,0.8
CG31099,DRSC14252,-0.1,0.1
dos,DRSC07992,5.3,4.4
dos,DRSC08713,-0.4,0.7
CG13843,DRSC14693,-0.1,0.4
Gtpx,DRSC08221,-0.3,-0.6
